Measurements as given in patent publication US20200340031A1.
Substitutions are numbered along the chain they refer to. No constants are given. Whether binding was seen depends on the method and setting. Some results given as binding are weak or reduced against the parent protein; the word gives no strength. Each block holds one binder with its values, some of them ahead of it.

The chains behind the UniProt entries cited, without tags or fusion partners. Where a name states a change or a piece, a line headed by the entry shows the natural chain unless it says otherwise.
UniProt Q5VYX0: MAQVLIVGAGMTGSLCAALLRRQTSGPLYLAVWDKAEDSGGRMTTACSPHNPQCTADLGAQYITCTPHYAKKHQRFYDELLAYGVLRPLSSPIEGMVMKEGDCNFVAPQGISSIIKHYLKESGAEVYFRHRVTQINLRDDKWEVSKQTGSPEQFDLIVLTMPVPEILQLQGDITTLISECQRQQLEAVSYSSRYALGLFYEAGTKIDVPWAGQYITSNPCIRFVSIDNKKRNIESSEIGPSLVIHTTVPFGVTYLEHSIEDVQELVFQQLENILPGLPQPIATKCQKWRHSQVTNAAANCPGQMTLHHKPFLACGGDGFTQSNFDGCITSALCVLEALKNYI

Tests used:
[1] = biological target: Recombinant human renalase-1 (RV11), bacterially expressed (human) (UniProt Q5VYX0); test: Western blot
[2] = biological target: Recombinant human renalase-1 (RV11), bacterially expressed (human) (UniProt Q5VYX0); test: sandwich ELISA, capture antibody; detection with biotinylated Ren 1F 26-1
[3] = biological target: Recombinant human renalase-1 (RV11), bacterially expressed (human) (UniProt Q5VYX0); test: Western blot of recombinant protein
[4] = biological target: Recombinant human renalase-1 (RV11), bacterially expressed (human) (UniProt Q5VYX0); test: Immunoprecipitation of RV11 with antibody on Actigel beads, Western blot with Ren1D 28-4
[5] = biological target: Recombinant human renalase-1 (RV11), bacterially expressed (human) (UniProt Q5VYX0); test: Sandwich ELISA, Ren 1D 28-4 as capture, biotinylated Ren 1F 26-1 as detection, RV11 titrated
[6] = biological target: Recombinant human renalase-1 (RV11), bacterially expressed (human) (UniProt Q5VYX0); test: immunoprecipitation with Actigel-coupled antibody, Western blot read-out
[7] = biological target: Recombinant human renalase-1 (RV11), bacterially expressed (human) (UniProt Q5VYX0); test: Sandwich ELISA, polyclonal #3009 as capture, biotinylated 1F 26-1 as detection; axis printed as RV11 in serum
[8] = biological target: Recombinant human renalase-1 (RV11), bacterially expressed (human) (UniProt Q5VYX0); test: sandwich ELISA, biotinylated detection antibody at 4 µg/mL; capture with Ren 1D 28-4
[9] = biological target: Recombinant human renalase-1 (RV11), bacterially expressed (human) (UniProt Q5VYX0); test: standard curve with acid-pretreated recombinant renalase in the sandwich ELISA with m42-RNLS capture

binding [1]: binds
binding [2]: binds
binding [3]: binds
binding [4]: binds
binding [5]: binds
binding [6]: binds
B1: anti-1D epitope monoclonal antibody 1D-28-4 (antibody, V domains shown)
VH: QSVEESGGRLVTPGTPLTLTCTVSGFSLSSFAVGWVRQAPGKGLEYIGIISSVGITRYASWAAGRFTISKTSTTVDLKITSPTTEDTATYFCARYGYSGDVNRLDLWGQGTLVTVSS
VL: AQVLTQTASPVSAAVGGTVTINCQASQSVYDNNNLAWYQQKPGQPPKQLIYGASTLASGVSSRFKGSGSGTQFTLTISGVQCDDAATYYCLGEFSCSSADCFAFGGGTEVVVKG

binding [1]: binds
binding [3]: binds
binding [4]: binds
binding [6]: binds
B2: anti-1D epitope monoclonal antibody 1D-37-10 (antibody, V domains shown)
VH: QSVEESGGRLVTPGGSLTLTCTVSGFSLSDYAIIWVRQAPGKGLEYIAIIGSSGDTFYATWAKGRFTISKTSTTVDLKMTSLTAADTATYFCAPRYAGTTDYHDAFDPWGPGTLVTVSS
VL: EVVMTQTPASMEAPMGGTVTIKCQASQNIYNYLSWYQQKPGQPPKLLVYKASTLTSGVPSRFKGSGSGTQFTLTISDLECADAATYYCQINYSIYNHYNIIFGGGTEVVVKG

binding [7]: binds
binding [1]: binds
binding [8]: binds
binding [3]: binds
binding [4]: binds
binding [5]: binds
binding [6]: binds
B3: anti-1F epitope monoclonal antibody 1F-26-1 (antibody, V domains shown)
VH: QSVKESEGGLFKPTDTLTLTCTVSGFSLSSYGVTWVRQAPGNGLEWIGLIGDRGTTFYASWAKSRSTITRNTNLNTVTLKMTRLTAADTATYFCARGSGYGARIWGPGTLVTVSS
VL: AQVLTQTPSPVSAAVGGTVTINCQSSQSVYKNNYLAWYQQKPGQPPKLLIYETSKLASGVPPRFSGSGSGTQFTLTISSVQCDDAATYYCQGGYSGVDFMAFGGGTEVVVKG

binding [1]: binds
binding [4]: binds
binding [6]: binds
binding [9]: binds
B4: anti-1F epitope monoclonal antibody 1F-42-7 (antibody, V domains shown)
VH: B3 VH with S29T, S30T, F57Y, A62V, K63N, S64G, S114A
VL: B3 VL with V11M, V15L, S28T, K31N, A36S, A57S
